# Data published in PubChem BioAssay AID602441 (National Center for Advancing Translational Sciences (NCATS), 2012).
# In all, about 1,300 compounds went through this assay and fewer than 10 were called active. Not shown: some 9% with an inconclusive outcome. Calls follow the shape of the dose curve; as a rule, active = well fitted curve in the direction sought with a large enough effect; inconclusive = small, poorly fitted or top-dose-only effect, or another doubt; inactive = no such curve, though single readings can be large or run the other way. The list shows a part of the results.
# Assay: qHTS for antagonists of the Thyroid Stimulation Hormone Receptor: Hit Validation in Parental Cell Line; as to activity change, negative = inhibition: 0% is about no effect
# Details: parental HEK293 cells lacking TSHR, counter-screen; series mostly up to 56.9 µM; activity change, negative = inhibition: at the top concentration
# Source text: The thyroid-stimulating hormone receptor (TSHR) is a member of the 7 trans-membrane-spanning receptor (7TMR) family of cell surface receptors. TSHR-mediated hyperthyroidism is important in thyroid pathology. The development of small molecule antagonists of TSHR may lead to therapeutic approaches for TSHR-mediated hyperthyroidism caused by constitutively activating mutations or stimulating auto-antibodies associated with Graves' disease. Graves' disease is the leading cause of hyperthyroidism and is caused by autoantibodies that stimulate TSHR (TsAbs) causing thyroid growth and unregulated overproduction of thyroid hormones and existing treatments have liabilities (agranulocytosis). In addition, TSHRs are known to be expressed in multiple extrathyroidal tissues including bone, brain, kidney, testis, fat and cells of the immune system but the role of the TSHR in these tissues is not clear. Therefore, TSHR antagonists/inverse agonists could be used as probes of extrathyroidal TSHR function. Finally, TSHR inverse agonists, which are a subclass of antagonists that inhibit agonist-independent (or basal or constitutive) TSHR signaling, could be used to inhibit TSH-independent signaling in patients with recurrent or metastatic thyroid cancer who are receiving thyroid hormone to suppress TSH.
# In collaboration between scientist from the NCGC and the NIDDK, a miniaturized HTRF high-throughput screen was developed. It's a cell based assay, where an anti cAMP antibody contains a fluorescent cryptate tag (excitation 337 nm; emission 620 nm) and the acceptor is cAMP-d2 (excitation 620 nm; emission 665 nm). When antibody and cAMP-d2 interact and are excited by a 337 nm light, a FRET occurs resulting in emission at 665 nm. The assay is competition between cAMP-d2 and cAMP (from the cell lysate). The homogeneous protocol allows for one step dispense after stimulation that is automation friendly. This is a hit validation assay in a counterscreen using parental HEK 293 cells lines.
# NIH Chemical Genomics Center [NCGC]
# NIH Molecular Libraries Probe Centers Network [MLPCN]
# Assay Provider: Marvin Gershengorn, NIDDK
# An anti cAMP antibody contains a fluorescent cryptate tag (excitation 337 nm; emission 620 nm) and the acceptor is cAMP-d2 (excitation 620 nm; emission 665 nm). When antibody and cAMP-d2 interact and are excited by a 337 nm light, a FRET occurs resulting in emission at 665 nm. The assay is competition between cAMP-d2 and cAMP (from the cell lysate). The homogeneous protocol allows for one step dispense after stimulation that is automation friendly. This assay uses parental HEK-EM 293 cells
# Potency is read from the fitted curve at half-maximal effect.
Structure (SMILES),"activity change, negative = inhibition",Potency
O=[N+]([O-])c1cc(S(=O)(=O)C(F)(F)F)ccc1Sc1nc2ccccc2s1,inactive: -6.57%,–
O=C(Nc1nc(-c2ccc(F)cc2)cs1)C1CCN(C(=O)c2ccc(F)cc2)CC1,inactive: -8.68%,–
CC(C)Oc1ccc(C(=O)Nc2ccc(Cl)c(S(=O)(=O)Nc3ccc(Cl)cc3)c2)cc1,inactive: 0.687%,–
Cc1ccccc1NC(=O)CCc1c(C)nn(-c2ccc(N3CCOCC3)nn2)c1C,inactive: 4.76%,–
COc1cc(/C=N/Nc2ccc(C(=O)O)cc2)ccc1O,inactive: -5.88%,–
COc1ccc(C(C(=O)NC(C)(C)C)N(CCc2ccccc2)C(=O)CCC(=O)Nc2cc(C)on2)cc1 (stereo not given),inactive: 2.28%,–
CNc1c(NC(=O)c2ccc3c(c2)OCO3)c(=O)oc2ccccc12,inactive: 3.93%,–
Cc1ccccc1Oc1cc(-n2ncc(Cl)c(Cl)c2=O)ncn1,inactive: 7.91%,–
O=C(NC(=S)Nc1ccc(C(=O)N2CCOCC2)cc1)c1ccc([N+](=O)[O-])cc1,inactive: 2.72%,–
COc1ccc(CNC(=O)C2CCCN2C(=O)NCc2ccccc2)cc1 (stereo not given),inactive: -3.03%,–
CCn1nc(C)c(CN2CCCC(CNS(=O)(=O)c3ccc(OC)cc3)C2)c1C (stereo not given),inactive: -4.08%,–
COc1cc(NC(=O)Cn2nc(C(F)(F)F)c(Br)c2C)cc([N+](=O)[O-])c1,inactive: -2.91%,–
Cc1cccc(NC(=S)NCC(C)CSc2ccc(Cl)cc2)c1 (stereo not given),inactive: 1.48%,–
CCN(CC)c1ccc2nc3ccccc3[n+](CC)c2c1,–,active: 13.5 µM
O=C(NCC1CCCO1)c1cccc2c1C(=O)c1ccc(N3CCC(Cc4ccccc4)CC3)cc1S2(=O)=O (stereo not given),inactive: -10.6%,–
COc1ccc(S(=O)(=O)N2CCN(c3cccc(C)c3C)CC2)cc1,inactive: -1.34%,–
O=[N+]([O-])c1ccc(COc2cccc(CNc3ccc(F)cc3)c2)cc1,inactive: -0.275%,–
O=C(/C=C/c1ccc(Cl)cc1Cl)NCCSCc1ccccc1,inactive: -4.87%,–
CCOc1ccccc1NC(=O)CSc1nc2ccccc2c(=O)n1CC1CCCO1 (stereo not given),inactive: 3.86%,–
COc1ccc(C2c3ccc(O)cc3Oc3ncn(Cc4ccco4)c(=N)c32)cc1 (stereo not given),inactive: -0.978%,–
CCCN1C(=O)c2ccc(C(=O)Nc3cc(C)ccc3O)cc2C1=O,inactive: 0.657%,–
O=C(Nc1ccncc1)c1ccc(Cl)c(S(=O)(=O)N2CCc3ccccc32)c1,inactive: -4.42%,–

Structure (SMILES),"activity change, negative = inhibition",Potency
Cc1cccc(N(C(=O)c2nsc(Cl)c2Cl)C(C(=O)NC2CCCC2)c2ccc(O)cc2)c1C (stereo not given),inactive: -4.34%,–
Cc1ccc(Cl)cc1NC(=O)c1cc2ccccc2cc1O,inactive: -7.7%,–
Cc1cccc(CC(=O)NCC(=O)NCc2cc(=O)n(C)c(=O)n2C)c1,inactive: 7.15%,–
O=C(Nc1nc2c(s1)CCCC2)c1ccc2ncsc2c1,inactive: -5.44%,–
c1ccc(C(c2nnnn2Cc2ccco2)N2CCN(c3nc4ccccc4s3)CC2)cc1 (stereo not given),inactive: -2.24%,–
CCCn1c(=O)c2[nH]c(C3CCCC3)nc2n(CCC)c1=O,inactive: -2.79%,–
COCC1CCCCN1C(=O)C1CCN(c2nc(-c3ccccc3)nc3c2CCC3)CC1 (stereo not given),inactive: -0.886%,–
c1ccc2c(COn3nnc4ccccc43)cccc2c1,inactive: 1.54%,–
CC(C)C1Nc2c(O)cc(Cl)c([N+](=O)[O-])c2C2C=CCC21 (stereo not given),inactive: 3.61%,–
CCCC(=O)N(C1CC(C)C(C#N)(C#N)C1(C#N)C#N)N(C)C (stereo not given),inactive: -9.26%,–
COc1cccc(OC)c1C(=O)Nc1sc2c(c1C#N)CCC2,inactive: 1.03%,–
CSCCCNC(=O)c1ccc(OC2CCN(C(=O)c3cccnc3)CC2)cc1,inactive: 2.79%,–
O=C(NN=C1CCCC1)c1cc(Cl)cc(Cl)c1O,inactive: 0.126%,–
COc1ccc(NC(=O)CCC2CCCCC2)cc1S(=O)(=O)N1CCCCC1,inactive: 1.02%,–
CC(=O)c1cccc(NC(=O)c2sc3nc4n(c(=O)c3c2C)CCCC4)c1,inactive: 3.67%,–
COc1ccc(N2C(=O)NC(NS(=O)(=O)c3ccc(Cl)cc3)(C(F)(F)F)C2=O)cc1 (stereo not given),inactive: -0.246%,–
CCc1noc(C)c1C(=O)Oc1ccc(N(C)S(=O)(=O)c2ccc(C)cc2)cc1,inactive: 0.572%,–
Cc1cccc(C)c1OCCCn1ccnc1,inactive: 4.2%,–
NC(=O)c1cc(S(=O)(=O)NCc2ccc(F)cc2)cs1,inactive: 5.02%,–
Cc1ccc(S(=O)(=O)N(CC(=O)NCc2ccccn2)c2ccc(Cl)cc2)cc1,inactive: 2.85%,–
Cc1ccc(C)c(S(=O)(=O)N2CCN(C(=O)C3CCN(c4ncnc5sc(C)c(C)c45)CC3)CC2)c1,inactive: -5.61%,–
O=C(Nc1nccs1)c1ccc(COc2c(F)c(F)cc(F)c2F)o1,inactive: -1.76%,–

# 2 of these compounds, reformatted:
Structure (SMILES)	activity change, negative = inhibition	Potency
CSCCCNC(=O)c1ccc(OC2CCN(C(=O)c3cccnc3)CC2)cc1	inactive: 2.79%	–
O=C(NN=C1CCCC1)c1cc(Cl)cc(Cl)c1O	inactive: 0.126%	–

# The results go on:

Structure (SMILES),"activity change, negative = inhibition",Potency
COc1ccc(F)cc1CN1CCN(C(=O)CCC(=O)Nc2nnc(CC(C)C)s2)CC1,inactive: -6.63%,–
CCOc1cc(N2CCOCC2)c(OCC)cc1NC(=O)c1cc(S(=O)(=O)N2CCOCC2)ccc1C,inactive: 0.812%,–
COc1cccc(CN(C)C(=O)c2ccc(Oc3ccccc3)cc2)c1OC,inactive: 2.59%,–
CCOC(=O)N1CCN(C(=O)c2ccc(NS(=O)(=O)c3ccc(C)cc3)cc2)CC1,inactive: 0.522%,–
Cc1nc(NCCc2ccccc2)c(C#N)c(C)c1[N+](=O)[O-],inactive: 0.962%,–
COC(=O)C1C(=O)NC(SC)=C(C#N)C1c1ccccc1 (stereo not given),inactive: 2.62%,–
COC(CNC(=O)c1cn(C)c2ccc(S(=O)(=O)N3CCOCC3)cc2c1=O)OC,inactive: 2.39%,–
CCOc1cc(S(=O)(=O)n2cnc(C)c2)ccc1Cl,inactive: 1.58%,–
O=C(Nc1nc(-c2ccccc2)cs1)c1ccccc1NS(=O)(=O)c1ccc(F)cc1,inactive: -4.31%,–
Cn1c2c(c(=O)n(C)c1=O)C(C(F)(F)F)(C(F)(F)F)N=C(c1ccc(Cl)cc1)N2,inactive: 0.519%,–
N#Cc1nc(-c2ccccc2)oc1N1CCN(C(=O)c2ccco2)CC1,inactive: -6.58%,–
CC(C)Cc1csc(NC(=O)c2ccc(Br)cc2)c1C(=O)O,inactive: 5.96%,–
O=C1C=C(c2ccc3[nH]ccc3c2)C[C@@H](c2ccc(Cl)cc2)C1,inactive: -7.98%,–
O=C1NC(=S)S/C1=C\c1ccc2ccccc2c1,inactive: -3.05%,–
O=C(O)c1ccc(S(=O)(=O)N(Cc2ccccc2)Cc2ccccc2)cc1,inactive: 1.07%,–
Cc1nnc(SCC(=O)Nc2nonc2C)s1,inactive: 2.38%,–
CC(=O)N/C(=C\c1ccc(Cl)cc1)C(=O)O,inactive: 7.1%,–
COc1cccc(NC(=S)N2CCCN(Cc3ccc(F)cc3)C2)c1,inactive: -4.55%,–
Cc1ccc2c(CN3CCN(S(=O)(=O)c4ccc(Cl)cc4)CC3)cc(=O)oc2c1C,inactive: -0.247%,–
O=C(O)/C=C/c1ccc(S(=O)(=O)Nc2ccccc2C(=O)Nc2ccc(F)cc2)cc1,inactive: -0.409%,–
COc1ccc(NC(=S)N(CCCN2CCOCC2)C(C)c2cc3cccc(OC)c3o2)cc1 (stereo not given),inactive: 1.87%,–
